Experimental data from patent publication US20120157451A1, “RAF INHIBITOR COMPOUNDS AND METHODS OF USE THEREOF” (GENENTECH, INC, priority 2009, published 2012).
Some entries share one result that the patent states for a list of compounds.

Amino acid sequences for entries named in this document (tags omitted).
UniProt P15056, whole entry V600E: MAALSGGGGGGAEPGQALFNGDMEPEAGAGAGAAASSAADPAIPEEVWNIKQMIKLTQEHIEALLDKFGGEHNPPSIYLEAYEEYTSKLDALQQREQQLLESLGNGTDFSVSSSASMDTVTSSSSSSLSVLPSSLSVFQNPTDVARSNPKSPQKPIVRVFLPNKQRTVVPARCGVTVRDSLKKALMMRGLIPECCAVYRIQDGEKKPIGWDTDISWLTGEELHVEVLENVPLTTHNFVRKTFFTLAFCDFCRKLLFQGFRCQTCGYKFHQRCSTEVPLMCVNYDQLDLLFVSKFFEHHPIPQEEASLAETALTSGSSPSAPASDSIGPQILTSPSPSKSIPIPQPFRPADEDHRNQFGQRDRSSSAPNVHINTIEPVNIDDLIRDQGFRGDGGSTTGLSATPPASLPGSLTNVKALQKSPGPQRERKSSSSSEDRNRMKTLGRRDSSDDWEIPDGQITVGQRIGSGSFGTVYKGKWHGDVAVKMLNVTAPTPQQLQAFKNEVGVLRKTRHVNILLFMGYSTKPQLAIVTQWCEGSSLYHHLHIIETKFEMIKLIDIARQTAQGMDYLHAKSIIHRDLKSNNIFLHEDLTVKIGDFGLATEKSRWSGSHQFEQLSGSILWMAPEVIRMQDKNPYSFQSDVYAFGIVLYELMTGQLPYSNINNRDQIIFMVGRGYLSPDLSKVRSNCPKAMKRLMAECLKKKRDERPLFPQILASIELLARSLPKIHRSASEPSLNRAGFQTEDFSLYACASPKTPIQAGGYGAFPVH

Target: T1, V600E full-length B-Raf (Homo sapiens, UniProt P15056, V600E)
T1 construct: made in house; host or cells: Sf9 insect cells (baculovirus)
Assay: B-Raf IC50 assay (incorporation of radiolabeled phosphate from [γ-33P]ATP into FSBA-modified wild-type MEK)
Assay type: biochemical
Settings: bound stated
Text: Determining the activity of Raf in the sample is possible by a number of direct and indirect detection methods (US 2004/0082014). Activity of human recombinant B-Raf protein may be assessed in vitro by assay of the incorporation of radio labeled phosphate to recombinant MAP kinase (MEK), a known physiologic substrate of B-Raf, according to US 2004/0127496 and WO 03/022840.
Activity of human recombinant B-Raf protein may be assessed in vitro by assay of the incorporation of radio labeled phosphate to recombinant MAP kinase (MEK), a known physiologic substrate of B-Raf, according to US 2004/0127496 and WO 03/022840. Catalytically active human recombinant B-Raf protein is obtained by purification from sf9 insect cells infected with a human B-Raf recombinant baculovirus expression vector.
Incubations were carried out at 22° C. in a Costar 3365 plate (Corning). Prior to the assay, the B-Raf and FSBA-MEK were preincubated together in assay buffer at 1.5× (20 μL of 30 nM and 1.5 μM, respectively) for 15 minutes, and the assay was initiated by the addition of 10 μL of 10 μM ATP. Following the 60-minute incubation, the assay mixtures were quenched by the addition of 100 μL of 25% TCA, the plate was mixed on a rotary shaker for 1 minute, and the product was captured on a Perkin-Elmer GF/B filter plate using a Tomtec Mach III Harvester. After sealing the bottom of the plate, […] of Bio-Safe II (Research Products International) scintillation cocktail were added to each well and the plate was top-sealed and counted in a Topcount NXT (Packard).

| SMILES | IC50 |
| --- | --- |
| CCCS(=O)(=O)Nc1ccc(F)c(C(=O)Nc2cnc3cc(OC)nn3c2)c1F [Example 1, 2,6-difluoro-N-(2-methoxypyrazolo[1,5-a]pyrimidin-6-yl)-3-(propylsulfonamido)benzamide] | < 1000 nM |
| CCCS(=O)(=O)Nc1ccc(F)c(C(=O)Nc2cnc3cc(C4CC4)nn3c2)c1F [Example 28, N-(2-cyclopropylpyrazolo [1,5-a]pyrimidin-6-yl)-2,6-difluoro-3-(propylsulfonamido) benzamide] | < 1000 nM |
